# Experimental data reported in the supplement of paper PMC8728848.
# This is one part of the list.
# What was measured:
# Test in all cases: glycan array binding signal (z-score within array); higher = stronger binding
# Conditions in all cases: glycan notation: IUPAC condensed, linker removed
# [1] = molecular target: Fuc(a1-2)Gal(b1-4)GlcNAc(b1-6)GalNAc
# Method in brief: (§1)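 Glycan array data came from 3228 arrays in the Consortium for Functional Glycomics database, and only arrays with an available protein sequence were kept. Glycan names were put into IUPAC-condensed notation, and columns mapping to the same glycan were averaged. The binding signal is a within-array Z-score, averaged across arrays of one protein sequence run at different concentrations or buffers and across linkers. A negative Z-score can be read as non-binding.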
# [2] = molecular target: Fuc(a1-2)Gal(b1-4)GlcNAc6S
# Method in brief: as §1
# [3] = molecular target: Fuc(a1-2)Gal(b1-4)[Fuc(a1-3)]GlcNAc
# Method in brief: as §1
# [4] = molecular target: Fuc(a1-2)Gal(b1-4)[Fuc(a1-3)]GlcNAc(b1-2)Man(a1-3)[Fuc(a1-2)Gal(b1-4)[Fuc(a1-3)]GlcNAc(b1-2)Man(a1-6)]Man(b1-4)GlcNAc(b1-4)GlcNAc
# Method in brief: as §1
# [5] = molecular target: Fuc(a1-2)Gal(b1-4)[Fuc(a1-3)]GlcNAc(b1-2)Man(a1-3)[Fuc(a1-2)Gal(b1-4)[Fuc(a1-3)]GlcNAc(b1-2)Man(a1-6)]Man(b1-4)GlcNAc(b1-4)[Fuc(a1-6)]GlcNAc
# Method in brief: as §1
# [6] = molecular target: Fuc(a1-2)Gal(b1-4)[Fuc(a1-3)]GlcNAc(b1-2)[Fuc(a1-2)Gal(b1-4)[Fuc(a1-3)]GlcNAc(b1-4)]Man(a1-3)[Fuc(a1-2)Gal(b1-4)[Fuc(a1-3)]GlcNAc(b1-2)Man(a1-6)]Man(b1-4)GlcNAc(b1-4)GlcNAc
# Method in brief: as §1
# [7] = molecular target: Fuc(a1-2)Gal(b1-4)[Fuc(a1-3)]GlcNAc(b1-3)Gal(b1-4)[Fuc(a1-3)]GlcNAc
# Method in brief: as §1
# [8] = molecular target: Fuc(a1-2)Gal(b1-4)[Fuc(a1-3)]GlcNAc(b1-3)Gal(b1-4)[Fuc(a1-3)]GlcNAc(b1-3)Gal(b1-4)[Fuc(a1-3)]GlcNAc
# Method in brief: as §1
# [9] = molecular target: Fuc(a1-2)Gal(b1-4)[Fuc(a1-3)]GlcNAc(b1-3)GalNAc
# Method in brief: as §1
# [10] = molecular target: Fuc(a1-2)Gal(b1-4)[Fuc(a1-3)]GlcNAc(b1-3)[Neu5Ac(a2-6)Gal(b1-4)GlcNAc(b1-6)]Gal(b1-4)Glc
# Method in brief: as §1
# [11] = molecular target: Fuc(a1-2)Gal3S(b1-4)GlcNAc
# Method in brief: as §1
# [12] = molecular target: Fuc(a1-2)Gal6S(b1-3)GlcNAc
# Method in brief: as §1
# [13] = molecular target: Fuc(a1-2)Gal6S(b1-3)GlcNAc6S
# Method in brief: as §1
# Fuc(a1-2)Gal6S(b1-4)Glc = molecular target: Fuc(a1-2)Gal6S(b1-4)Glc
# Method in brief: as §1
# [14] = molecular target: Fuc(a1-2)Gal6S(b1-4)Glc6S
# Method in brief: as §1
# [15] = molecular target: Fuc(a1-2)Gal6S(b1-4)GlcNAc
# Method in brief: as §1
# Fuc(a1-2)[Gal(a1-3)]Gal = molecular target: Fuc(a1-2)[Gal(a1-3)]Gal
# Method in brief: as §1
# [16] = molecular target: Fuc(a1-2)[Gal(a1-3)]Gal(b1-3)GalNAc
# Method in brief: as §1
# [17] = molecular target: Fuc(a1-2)[Gal(a1-3)]Gal(b1-3)GalNAc(b1-3)Gal(a1-4)Gal(b1-4)Glc
# Method in brief: as §1
# [18] = molecular target: Fuc(a1-2)[Gal(a1-3)]Gal(b1-3)GlcNAc
# Method in brief: as §1
# [19] = molecular target: Fuc(a1-2)[Gal(a1-3)]Gal(b1-3)GlcNAc(b1-2)Man(a1-3)[Fuc(a1-2)[Gal(a1-3)]Gal(b1-3)GlcNAc(b1-2)Man(a1-6)]Man(b1-4)GlcNAc(b1-4)GlcNAc
# Method in brief: as §1
# [20] = molecular target: Fuc(a1-2)[Gal(a1-3)]Gal(b1-3)GlcNAc(b1-2)Man(a1-3)[Fuc(a1-2)[Gal(a1-3)]Gal(b1-3)GlcNAc(b1-2)Man(a1-6)]Man(b1-4)GlcNAc(b1-4)[Fuc(a1-6)]GlcNAc
# Method in brief: as §1
# [21] = molecular target: Fuc(a1-2)[Gal(a1-3)]Gal(b1-3)GlcNAc(b1-3)GalNAc
# Method in brief: as §1
# [22] = molecular target: Fuc(a1-2)[Gal(a1-3)]Gal(b1-3)GlcNAc(b1-6)GalNAc
# Method in brief: as §1
# [23] = molecular target: Fuc(a1-2)[Gal(a1-3)]Gal(b1-4)Glc
# Method in brief: as §1
# [24] = molecular target: Fuc(a1-2)[Gal(a1-3)]Gal(b1-4)GlcNAc
# Method in brief: as §1
# [25] = molecular target: Fuc(a1-2)[Gal(a1-3)]Gal(b1-4)GlcNAc(b1-2)Man
# Method in brief: as §1
# [26] = molecular target: Fuc(a1-2)[Gal(a1-3)]Gal(b1-4)GlcNAc(b1-2)Man(a1-3)[Fuc(a1-2)[Gal(a1-3)]Gal(b1-4)GlcNAc(b1-2)Man(a1-6)]Man(b1-4)GlcNAc(b1-4)GlcNAc
# Method in brief: as §1
# [27] = molecular target: Fuc(a1-2)[Gal(a1-3)]Gal(b1-4)GlcNAc(b1-2)Man(a1-3)[Fuc(a1-2)[Gal(a1-3)]Gal(b1-4)GlcNAc(b1-2)Man(a1-6)]Man(b1-4)GlcNAc(b1-4)[Fuc(a1-6)]GlcNAc
# Method in brief: as §1
# [28] = molecular target: Fuc(a1-2)[Gal(a1-3)]Gal(b1-4)GlcNAc(b1-3)GalNAc
# Method in brief: as §1
# [29] = molecular target: Fuc(a1-2)[Gal(a1-3)]Gal(b1-4)GlcNAc(b1-3)[Fuc(a1-2)[Gal(a1-3)]Gal(b1-4)GlcNAc(b1-6)]GalNAc
# Method in brief: as §1
# [30] = molecular target: Fuc(a1-2)[Gal(a1-3)]Gal(b1-4)GlcNAc(b1-6)GalNAc
# Method in brief: as §1
# [31] = molecular target: Fuc(a1-2)[Gal(a1-3)]Gal(b1-4)[Fuc(a1-3)]Glc
# Method in brief: as §1
# [32] = molecular target: Fuc(a1-2)[Gal(a1-3)]Gal(b1-4)[Fuc(a1-3)]GlcNAc
# Method in brief: as §1
# [33] = molecular target: Fuc(a1-2)[Gal(a1-3)]Gal(b1-4)[Fuc(a1-3)]GlcNAc(b1-3)GalNAc
# Method in brief: as §1
# [34] = molecular target: Fuc(a1-2)[Gal(a1-4)]Gal(b1-4)GlcNAc
# Method in brief: as §1
# [35] = molecular target: Fuc(a1-2)[GalNAc(a1-3)]Gal
# Method in brief: as §1
# [36] = molecular target: Fuc(a1-2)[GalNAc(a1-3)]Gal(b1-3)GalNAc(a1-3)[Fuc(a1-2)]Gal(b1-4)GlcNAc
# Method in brief: as §1
binder,measurement,setting,value
KISKRILTGKK [NK11 (Sus scrofa)],glycan array binding signal (z-score),[1],-0.705
same,glycan array binding signal (z-score),[2],-0.339
same,glycan array binding signal (z-score),[3],1.06
same,glycan array binding signal (z-score),[4],0.226
same,glycan array binding signal (z-score),[5],0.572
same,glycan array binding signal (z-score),[6],0.385
same,glycan array binding signal (z-score),[7],-0.13
same,glycan array binding signal (z-score),[8],-0.781
same,glycan array binding signal (z-score),[9],0.933
same,glycan array binding signal (z-score),[10],-0.454
same,glycan array binding signal (z-score),[11],-0.071
same,glycan array binding signal (z-score),[12],-0.567
same,glycan array binding signal (z-score),[13],-0.235
same,glycan array binding signal (z-score),Fuc(a1-2)Gal6S(b1-4)Glc,-0.458
same,glycan array binding signal (z-score),[14],-0.268
same,glycan array binding signal (z-score),[15],-0.302
same,glycan array binding signal (z-score),Fuc(a1-2)[Gal(a1-3)]Gal,-0.515
same,glycan array binding signal (z-score),[16],0.028
same,glycan array binding signal (z-score),[17],-0.219
same,glycan array binding signal (z-score),[18],1.13
same,glycan array binding signal (z-score),[19],-0.23
same,glycan array binding signal (z-score),[20],-0.614
same,glycan array binding signal (z-score),[21],0.052
same,glycan array binding signal (z-score),[22],0.117
same,glycan array binding signal (z-score),[23],-0.11
same,glycan array binding signal (z-score),[24],-0.609
same,glycan array binding signal (z-score),[25],-0.085
same,glycan array binding signal (z-score),[26],0.702
same,glycan array binding signal (z-score),[27],-0.848
same,glycan array binding signal (z-score),[28],-0.484
same,glycan array binding signal (z-score),[29],-0.577
same,glycan array binding signal (z-score),[30],-0.805
same,glycan array binding signal (z-score),[31],-1.04
same,glycan array binding signal (z-score),[32],0.133
same,glycan array binding signal (z-score),[33],0.477
same,glycan array binding signal (z-score),[34],0.014
same,glycan array binding signal (z-score),[35],-0.001
same,glycan array binding signal (z-score),[36],0.547

# An excerpt of these results, with bars between the fields.
binder | measurement | setting | value
KISKRILTGKK [NK11 (Sus scrofa)] | glycan array binding signal (z-score) | [28] | -0.484
same | glycan array binding signal (z-score) | [33] | 0.477
